Measurements published in US20210246191A1 (BIONTECH, published 2021).
Results are given in words; binding and its absence hold for the method and conditions named. Some binding calls cover weakened binding; strength is not graded here. Tags and fused reporters may be left off the sequences shown.

Chains of the proteins cited; added tags and fusions are not shown. Residues count along the entry.
FN-B(8-14) (R&D Systems), EDB with C-terminal domains 8-13 and 1/2 of domain 14 (P02751, residues 1265-1908): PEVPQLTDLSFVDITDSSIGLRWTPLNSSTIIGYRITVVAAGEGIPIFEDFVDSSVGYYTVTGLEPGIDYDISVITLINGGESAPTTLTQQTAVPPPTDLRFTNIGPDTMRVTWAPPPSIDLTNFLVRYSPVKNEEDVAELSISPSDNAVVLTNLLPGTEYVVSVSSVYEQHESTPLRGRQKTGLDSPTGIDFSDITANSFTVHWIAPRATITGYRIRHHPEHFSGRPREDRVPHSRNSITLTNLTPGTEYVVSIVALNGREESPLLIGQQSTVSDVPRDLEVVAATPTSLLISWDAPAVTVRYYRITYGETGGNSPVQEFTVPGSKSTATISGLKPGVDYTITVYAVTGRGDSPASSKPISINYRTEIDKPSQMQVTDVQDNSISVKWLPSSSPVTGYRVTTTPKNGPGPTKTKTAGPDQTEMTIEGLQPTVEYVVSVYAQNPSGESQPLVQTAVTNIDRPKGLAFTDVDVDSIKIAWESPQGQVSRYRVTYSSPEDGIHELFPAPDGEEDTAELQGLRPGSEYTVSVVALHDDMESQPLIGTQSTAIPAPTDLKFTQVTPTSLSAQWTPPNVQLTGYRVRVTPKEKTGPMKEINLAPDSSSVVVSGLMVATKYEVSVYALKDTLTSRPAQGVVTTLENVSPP
T7-TEV-B (LD BioPharma), a T7-TEV N-terminally flanked EDB domain (P02751, residues 1265-1355): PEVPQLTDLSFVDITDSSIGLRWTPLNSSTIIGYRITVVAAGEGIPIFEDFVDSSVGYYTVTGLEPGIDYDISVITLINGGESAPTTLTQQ

Key:
[1] = target: T7-TEV-B (LD BioPharma), a T7-TEV N-terminally flanked EDB domain (UniProt P02751); test: ELISA, 200 nM Trx-miniprotein on coated protein (1 µg/well), duplicates
[2] = target: FN-B(8-14) (R&D Systems), EDB with C-terminal domains 8-13 and 1/2 of domain 14 (UniProt P02751); test: as above
[3] = target: FN-B(8-14) (R&D Systems), EDB with C-terminal domains 8-13 and 1/2 of domain 14 (UniProt P02751); test: ELISA titration, ten concentrations of Trx-fusion on coated protein (1 µg/well), anti-s-tag-HRP (FIG. 6)
[4] = target: T7-TEV-B (LD BioPharma), a T7-TEV N-terminally flanked EDB domain (UniProt P02751); test: ELISA, 200 nM Trx-fusion on coated protein (1 µg/well) (FIG. 5)
[5] = target: FN-B(8-14) (R&D Systems), EDB with C-terminal domains 8-13 and 1/2 of domain 14 (UniProt P02751); test: as above
[6] = target: FN-B(8-14) (R&D Systems), EDB with C-terminal domains 8-13 and 1/2 of domain 14 (UniProt P02751); test: ELISA titration of Trx-miniprotein on coated protein (1 µg/well), HRP anti-S-tag antibody, single values [continued), panel MCopt 1.0-3]

Measured: binding

B1: Trx-MC-FN-010 (thioredoxin fusion of cystine-knot miniprotein MC-FN-010) (designed binder, not shown: large carriers; small tags and cut ends)
chain: PMCTQRKNRIRLCRRDSDCTGACICRGNGYCG
binds: all assays above
